{"source": "patent US20120245121A1", "about": "“METHODS FOR IMPROVING BONE HEALTH IN INFANTS USING LONG CHAIN POLYUNSATURATED FATTY ACIDS” (ABBOTT LABORATORIES, priority 2011, published 2012)", "assay": "Body weight of rat offspring after maternal diet supplementation", "format": "in vivo, Sprague-Dawley rats", "details": "mean±SEM", "data": [{"smiles": "O=C([O-])[O-].[Ca+2]", "note": "[Calcium, calcium carbonate]", "values": [{"measurement": "body weight of pups", "setting": "at delivery, p<0.05 vs. Control group", "result": "8.24 ± 0.10", "unit": "g"}, {"measurement": "body weight of pups", "setting": "at weaning (25-day-old), p<0.05 vs Control group", "result": "62.0 ± 0.9", "unit": "g"}]}]}
